Measurements reported in PubChem BioAssay AID1259308 (NCATS, 2017).

Test: 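Genes whose loss raises luciferase production in HEK293 cells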 (primary screen)
Cells: human HEK293 embryonic kidney cells stably expressing firefly luciferase (HEK-CMV-Luc2-Hygro)
Reagent: single siRNA against human genes, 0.8 pmol siRNA per well
Duration: 72 h
Read-out: 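Reporter luminescence and viable-cell signal on separate replicate plates, given as percent of non-targeting control and median/MAD z-scores, plus per-cell luciferase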
Scale: total luciferase, z-score and total luciferase, % of control: higher = more reporter protein produced; luciferase per cell, z-score: higher = more reporter output per viable cell; viable cells, % of control: higher = more viable cells
Hit rule: 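Active when the median/MAD z-score for overall luciferase is greater than 3; a gene was taken forward for validation with new siRNAs if at least two of its three siRNAs passed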
Meaning of the calls: active = raised luciferase; inactive = no rise
The whole screen tested about 59,000 reagents; this is a random part of them. Over the whole deposit, about 1,510 (2.6%) are marked active. 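Calls use total luciferase alone and ignore viability, so some active siRNAs may act by altering cell number.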 A number with no mark means an inactive call. The numbers tell different reagents against one gene apart.

| gene knocked down | siRNA no. | total luciferase, z-score | total luciferase, % of control | luciferase per cell, z-score | viable cells, % of control |
| --- | --- | --- | --- | --- | --- |
| DPH1 | 1 | 1.54 | 113 | 1.1 | 94.2 |
| DPH1 | 2 | -0.227 | 77.4 | -0.766 | 106 |
| DPH1 | 3 | 3.35 (active) | 149 | 1.89 | 101 |
| LRIT2 | 1 | -0.925 | 63.5 | -0.225 | 75.3 |
| LRIT2 | 2 | -1.31 | 55.8 | -1.29 | 87.5 |
| LRIT2 | 3 | 0.363 | 89.1 | 0.816 | 80.3 |
| MMP1 | 1 | -0.576 | 70.4 | -0.558 | 91.2 |
| MMP1 | 2 | 3.4 (active) | 149 | 3.37 | 68.7 |
| MMP1 | 3 | 0.343 | 88.7 | 0.107 | 96.4 |
| PTGR3 | 1 | 0.109 | 84.1 | -0.344 | 103 |
| PTGR3 | 2 | 2.24 | 127 | 1.66 | 91.2 |
| PTGR3 | 3 | -0.356 | 74.8 | -0.741 | 102 |
| DLGAP4 | 1 | 2.37 | 129 | 1.67 | 92.8 |
| DLGAP4 | 2 | -0.897 | 64.1 | -0.211 | 75.7 |
| DLGAP4 | 3 | 0.335 | 88.6 | 0.871 | 78.7 |

Just “total luciferase, % of control” (2 entries from above):
PTGR3 #3 = 74.8
DLGAP4 #1 = 129

More reagents:
| gene knocked down | siRNA no. | total luciferase, z-score | total luciferase, % of control | luciferase per cell, z-score | viable cells, % of control |
| --- | --- | --- | --- | --- | --- |
| LINC01139 | 1 | -0.489 | 72.2 | -0.813 | 99.9 |
| LINC01139 | 2 | -0.138 | 79.1 | 0.14 | 85.2 |
| LINC01139 | 3 | -3.01 | 22 | -1.23 | 34.1 |
| MSH2 | 1 | -0.039 | 81.1 | -0.311 | 98.4 |
| MSH2 | 2 | 0.816 | 98.1 | 0.764 | 89.7 |
| MSH2 | 3 | -0.214 | 77.6 | -0.789 | 107 |
| COX19 | 1 | 0.0575 | 83 | -0.0462 | 93.9 |
| COX19 | 2 | 0.545 | 92.7 | 1.7 | 66.2 |
| COX19 | 3 | 1.04 | 103 | 1.78 | 71.6 |
| SYN3 | 1 | 0.133 | 84.5 | 0.0493 | 93.2 |
| SYN3 | 2 | -0.645 | 69.1 | -0.652 | 91.6 |
| SYN3 | 3 | -0.659 | 68.8 | -0.0899 | 78.7 |
| COX16 | 1 | 0.876 | 99.3 | 0.0632 | 109 |
| COX16 | 2 | 1.5 | 112 | 1.76 | 78.6 |
| COX16 | 3 | 0.121 | 84.3 | -0.242 | 100 |
| VCP | 1 | 0.68 | 95.4 | 1.17 | 78.3 |
| VCP | 2 | 0.375 | 89.3 | 0.109 | 97 |
| VCP | 3 | -0.602 | 69.9 | 0.94 | 61 |
| WDR19 | 1 | 0.867 | 99.1 | 0.369 | 101 |
| WDR19 | 2 | -2.71 | 28.1 | -2.89 | 67.1 |
| WDR19 | 3 | -1.24 | 57.3 | -1.29 | 90 |
| CTSB | 1 | 0.215 | 86.2 | -0.238 | 103 |
| CTSB | 2 | -0.112 | 79.7 | -0.522 | 102 |
| CTSB | 3 | -1.67 | 48.7 | -1.83 | 88 |
